In all, about 330,000 compounds went through this assay and about 7,700 (2.3%) were called active. This list was built around the results that the source calls inconclusive (neither active nor inactive); the mix of calls is not that of the screen. Calls follow the shape of the dose curve; as a rule, active = well fitted inhibition curve with a large enough effect; inconclusive = small, poorly fitted or top-dose-only effect, or effect the other way; inactive = flat fitted curve, though single readings scatter. Potencies beside an inconclusive call are fits to weak or partial responses and may not hold up.
Experiment: qHTS screen for small molecules that inhibit ELG1-dependent DNA repair in human embryonic kidney (HEK293T) cells expressing luciferase-tagged ELG1; also: nearly all actives have a fitted effect of over 55% in size
Settings: HEK293T ELG1-luciferase reporter, luminescence, 16 h, DNA damage induced by 5-fluorouridine; series mostly up to 46.1 µM
In short: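 Step one: seed 2,000 cells per well. Step two: pin-transfer compound or DMSO alongside 5-fluorouridine. Step three: incubate 16 hr, 37 °C, 5% CO2. Step four: add ONE-Glo, wait 30 min, read luminescence.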
In the case of `O=C(c1cccc(N2C(=O)C3C4C=CC(C4)C3C2=O)c1)N1CCN(c2ccc(F)cc2)CC1` (stereo not drawn), the Potency is reported as inconclusive: 16.4 µM [inhibitor, partial curve]. For `O=C(NC(=S)Nc1nc(-c2cccc([N+](=O)[O-])c2)cs1)c1ccccc1Cl`, the Potency was “inactive”. For `Cn1c(NC(=O)c2cc(-c3ccc4c(c3)OCO4)nc3ccccc23)cc(=O)n(C)c1=O`, the Potency was inconclusive: 10.3 µM [activator, partial curve]. With `N#Cc1cccc(Cn2nnc(-c3ccccc3)n2)c1` the Potency was inconclusive: 13 µM [activator, partial curve, poor fit]. For `CC(C)Cc1cc(-c2ccco2)c(C#N)c(N)n1`, the Potency was inconclusive: 10.3 µM [activator, partial curve]. In the case of `CC(=O)Nc1ccc(NC(=O)C(C)OC(=O)c2cccc(S(=O)(=O)N3CCCC3)c2)cc1` (stereo not drawn), the Potency is reported as “inactive”. With `Cc1cc(C)c(S(C)(=O)=O)c(S(=O)(=O)c2ccc(Cl)cc2)n1` the Potency was inconclusive: 4.11 µM [activator, single point]. With `C=CCn1c(NC(=O)c2ccccc2)nc2ccccc21` the Potency was inconclusive: 31.6 µM [activator, partial curve, poor fit]. With `COc1ccc(N=C2C(=O)N3c4c(cccc42)C(C)=CC3(C)C)cc1` the Potency was “inactive”. For `CCNc1nc(Oc2ccc(C#N)cc2)cc(C(F)(F)F)n1`, the Potency was “inactive”. In the case of `CSCCC(NC(=O)c1ccco1)C(=O)NCCc1ccc(Cl)cc1` (stereo not drawn), the Potency is reported as “inactive”. With `Cc1ccc(NC(=O)C2CCN(S(=O)(=O)c3ccc4c(c3)CC(C)N4C(=O)C3CCC3)CC2)nc1` (stereo not drawn) the Potency was inconclusive: 8.2 µM [inhibitor, partial curve]. For `COc1ccc(NC(=O)c2ccc3c(=O)n(-c4ccc(OC)cc4OC)c(=S)[nH]c3c2)c(OC)c1`, the Potency was inconclusive: 20.6 µM [inhibitor, single point]. In the case of `COc1ccc(OC)c(NC(=O)N2CCCc3ccccc32)c1`, the Potency is reported as “inactive”. For `O=C(c1ccco1)N1CCN(Cc2c(F)cccc2Cl)CC1`, the Potency was inconclusive: 20.6 µM [activator, partial curve]. For `Cc1ccc(C(=O)N2CC(C)OC(C)C2)c(Cl)c1` (stereo not drawn), the Potency was inconclusive: 29.1 µM [inhibitor, single point]. In the case of `CCOC(=O)N1CCN(C(=O)COC(=O)CNC(=O)c2ccc(C)cc2)CC1`, the Potency is reported as “inactive”. For `C(=N\Nc1nc2ccccc2[nH]1)/c1ccc2c(c1)OCCO2`, the Potency was inconclusive: 2.31 µM [activator, partial curve]. For `COc1cccc(C2/C(=C(/O)c3cnn(-c4ccccc4)c3C)C(=O)C(=O)N2CCN(C)C)c1` (stereo not drawn), the Potency was inconclusive: 25.9 µM [activator, partial curve, poor fit]. For `CCN1C(=O)c2ccccc2S(=O)(=O)c2ccc(C(=O)NCCOC)cc21`, the Potency was inconclusive: 0.651 µM [inhibitor, full curve, poor fit]. In the case of `COc1ccc(C2=CC(=O)OC3(CCCCC3)O2)cc1`, the Potency is reported as “inactive”. For `COc1cccc(C2NC(=O)CCC2[N+](=O)[O-])c1` (stereo not drawn), the Potency was “inactive”. In the case of `Cc1cc(C(=O)N/N=C/c2c(C)nn(-c3ccccc3)c2C)c(C)o1`, the Potency is reported as inconclusive: 29.1 µM [activator, single point]. For `CCN(C(=O)COC(=O)c1nc(Cl)ccc1Cl)C1CCS(=O)(=O)C1` (stereo not drawn), the Potency was “inactive”. With `O=C(COc1ccc(Br)cc1Br)NC(=S)Nc1cccc(CO)c1` the Potency was inconclusive: 7.31 µM [activator, partial curve]. With `CCCn1c(SCC(=O)Nc2nc(C)c(C(=O)OC)s2)nnc1C(C)C` the Potency was “inactive”. With `CCCOc1ccc(C2c3c(oc4ccccc4c3=O)C(=O)N2CCN(CC)CC)cc1OC` (stereo not drawn) the Potency was inconclusive: 23.1 µM [activator, single point]. With `Cc1nnc(N/N=C/c2cccs2)[nH]c1=O` the Potency was inconclusive: 29.1 µM [activator, single point]. In the case of `COc1cccc(N2C(=O)CN(Cc3cc(OC)c(OC)c(OC)c3)C2=S)c1`, the Potency is reported as “inactive”. With `Cc1cccc(C(=O)Nc2ccc(Oc3cnccn3)cc2)c1` the Potency was inconclusive: 18.3 µM [activator, single point]. For `CCN(CC)C(=O)c1c[nH]c2ccc(S(=O)(=O)Nc3cc(C)cc(C)c3)cc2c1=O`, the Potency was “inactive”. For `O=C1CC2(CCN(C(=O)c3ccccc3Cl)CC2)Oc2ccccc21`, the Potency was inconclusive: 4.61 µM [inhibitor, partial curve, poor fit]. For `N#CC1(C#N)C(c2ccccc2)OC23CCCCC2C1(C#N)C(=N)O3` (stereo not drawn), the Potency was inconclusive: 16.4 µM [activator, partial curve, poor fit]. In the case of `O=C(NCCc1ccc(Cl)cc1)c1ccc2nccnc2c1`, the Potency is reported as inconclusive: 3.26 µM [activator, full curve]. For `CCCN(CCC)CCCNC(=O)c1cc2c(=O)n(CC)c3ccccc3c2s1`, the Potency was inconclusive: 9.2 µM [activator, partial curve]. With `NC(=S)NNc1cc(Cl)cc(Cl)c1` the Potency was “inactive”. In the case of `CCOC(=O)c1ccc(N/C=C2/CCCC(C)C2=O)cc1` (stereo not drawn), the Potency is reported as inconclusive: 14.6 µM [activator, partial curve]. For `CCN1C(=O)C(CC(=O)Nc2ccc(OC)cc2)N(CCc2ccccc2)C1=S` (stereo not drawn), the Potency was inconclusive: 23.1 µM [inhibitor, single point]. In the case of `Oc1ccc(-c2nccc(-c3cccs3)n2)cc1`, the Potency is reported as inconclusive: 20.6 µM [activator, partial curve]. In the case of `CC(=C\c1ccccc1)/C=C1/SC(=S)N(CCCC(=O)O)C1=O`, the Potency is reported as inconclusive: 13 µM [activator, partial curve]. For `C/C(=N/NC(=O)c1ccc2c(c1)OCO2)c1ccc(NC(=O)C(F)(F)F)cc1`, the Potency was inconclusive: 14.6 µM [activator, partial curve]. In the case of `CC(C)(C)c1ccc(OCC(=O)Nc2ccc(C(=O)Nc3ccccc3C(=O)O)cc2)cc1`, the Potency is reported as inconclusive: 32.6 µM [activator, partial curve, poor fit]. For `CC(=O)/C=C(\C)Nc1ccccc1O`, the Potency was inconclusive: 25.9 µM [inhibitor, single point]. In the case of `Cc1cccc(Nc2c3c(nc4ccccc24)CCC3)c1`, the Potency is reported as active: 20.6 µM. For `COc1ccc(NC(=O)C2CC(=O)N(Cc3ccc(C)cc3)C2)cc1S(=O)(=O)N1CCCCC1` (stereo not drawn), the Potency was inconclusive: 14.6 µM [inhibitor, partial curve, poor fit]. For `Cc1cc(C)n(CCNC(=O)c2cc(COc3ccc4ncccc4c3)on2)n1`, the Potency was inconclusive: 29.1 µM [inhibitor, single point]. For `COc1cc(C(=O)NCC2CCCO2)ccc1OCc1ccc(Cl)cc1Cl` (stereo not drawn), the Potency was inconclusive: 23.1 µM [inhibitor, single point]. With `CNc1snc(C)c1C(=O)OC(C)C(=O)Nc1cccc(C)c1` (stereo not drawn) the Potency was inconclusive: 13 µM [inhibitor, partial curve]. In the case of `CCc1nc(C)c(C(=O)N2CCCC(C(=O)Nc3cccc(-c4cccc(C)c4)c3)C2)o1` (stereo not drawn), the Potency is reported as inconclusive: 29.1 µM [inhibitor, single point]. With `CCOC(=O)N1CCN(C(=O)c2ccc3nc(N4CCC(C)CC4)sc3c2)CC1` the Potency was inconclusive: 32.6 µM [inhibitor, partial curve, poor fit]. In the case of `CCOc1ccc(S(=O)(=O)NCCC(=O)Nc2cccc(C(=O)OC)c2)cc1`, the Potency is reported as inconclusive: 18.3 µM [activator, single point]. In the case of `COc1cc(C(CCN2CCCCC2)c2c(OC)cc(OC)c3c(C)cc(=O)oc23)cc(OC)c1OC` (stereo not drawn), the Potency is reported as inconclusive: 20.6 µM [activator, partial curve, poor fit]. In the case of `CNc1snc(C)c1C(=O)OC(C)C(=O)NCc1ccccc1` (stereo not drawn), the Potency is reported as “inactive”. With `COc1ccc(C(=O)CSc2nnc(-c3ccco3)n2C)cc1` the Potency was “inactive”. For `O=C(CSc1nnnn1C1CC2CCC1C2)Nc1ccnc2ccccc12` (stereo not drawn), the Potency was inconclusive: 7.31 µM [inhibitor, partial curve, poor fit]. In the case of `COc1cccc(C2CC(c3cccs3)=NN2C(=O)CSc2nc3c(cnn3-c3ccc(F)cc3)c(=O)[nH]2)c1OC` (stereo not drawn), the Potency is reported as inconclusive: 16.4 µM [inhibitor, single point]. In the case of `C(=C\c1nc2ccccc2[nH]1)/c1ccccc1`, the Potency is reported as inconclusive: 0.891 µM [activator, full curve, poor fit]. For `CC(C)CN(C)C(=O)CCc1nnc(Cc2cccc(C(F)(F)F)c2)o1`, the Potency was inconclusive: 20.6 µM [activator, partial curve]. In the case of `Cc1cc(N/N=C/c2ccc(O)cc2O)nc(-n2nc(C)cc2C)n1`, the Potency is reported as active: 23.1 µM. With `CN1C(=O)/C(=C/c2ccc(C(=O)Nc3ccc(O)cc3C(=O)O)cc2)SC1=S` the Potency was inconclusive: 23.1 µM [activator, single point]. For `O=C(COC(=O)c1ccncc1)c1ccc(Cl)c(Cl)c1`, the Potency was “inactive”. In the case of `Cc1cnnn1-c1ccc(C(=O)CCl)cc1`, the Potency is reported as “inactive”. In the case of `N#C/C(=C/c1ccc(N2CCCCC2)o1)C(=O)Nc1ccc(Cl)cc1`, the Potency is reported as inconclusive: 3.66 µM [activator, partial curve]. In the case of `Cc1ccc(S(=O)(=O)Nc2ccc3c(c2)C(=O)N([C@H](C)CO)C[C@@H](C)[C@@H](CN(C)C(=O)Nc2cccc4ccccc24)O3)cc1`, the Potency is reported as inconclusive: 18.3 µM [inhibitor, partial curve]. With `CC(NC(=O)c1cccc(S(=O)(=O)N(C)c2ccccc2)c1)c1cccnc1` (stereo not drawn) the Potency was inconclusive: 18.3 µM [inhibitor, partial curve, poor fit]. For `Cc1cccc(CCNC(=O)Cn2ncc3c([nH]c4ccccc43)c2=O)c1`, the Potency was “inactive”. For `Cc1nnsc1C(=O)NNc1c(Cl)cccc1Cl`, the Potency was “inactive”. With `c1ccc(C2(CN3CCNC[C@H]3Cc3cccc4ccccc34)CC2)cc1` the Potency was inconclusive: 25.9 µM [activator, single point].
Potency is read from the fitted curve at half-maximal effect.
